Record: PubChem BioAssay AID1224830 (NIAID, 2016)
Purpose: 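Host factors that control LPS-induced TNF expression in human macrophages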 (primary screen). Cell system: human THP-1 monocytic leukaemia cells, TNF dual-luciferase reporter clone, PMA-differentiated to macrophage-like cells. Reagents: siRNA pool against human genes, 50 nM. Duration: LPS for 4 h, given about 3 days after siRNA transfection. Challenge: bacterial LPS (TLR4 ligand), 10 ng/ml. Detection: 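Ratio of firefly to renilla light, scaled to the plate median and expressed as a robust z-score per replicate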. Reading the numbers: TNF reporter robust z-score: higher = stronger TNF reporter response to LPS. Rule for the call: 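a well is active when its z-score exceeds 2.8 or falls below -1.5; control wells carry no call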.
The whole screen tested about 18,000 reagents; below is a random part of them. Of all reagents, about 2,900 (16%) got an active call. 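Calls are made per well; low scores hint the gene aids the LPS response, high scores that it dampens it.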 Repeated entries: four replicate wells of each siRNA pool. No sequences are given here.

Knock-down of ZNF385A (GeneID 25946) came out at: TNF reporter robust z-score -0.72; inactive.
With knock-down of ZNF385A (GeneID 25946), the screen gave TNF reporter robust z-score -1.35; inactive.
ZNF385A (GeneID 25946) scored TNF reporter robust z-score -0.92; inactive.
With knock-down of ZNF385A (GeneID 25946) the results were TNF reporter robust z-score -0.98; inactive.
UBE2W (GeneID 55284) scored TNF reporter robust z-score 0.51; inactive.
UBE2W (GeneID 55284) scored TNF reporter robust z-score -0.38; inactive.
UBE2W (GeneID 55284) showed TNF reporter robust z-score 0.31; inactive.
After knock-down of MAP7D2 (GeneID 256714), the screen gave TNF reporter robust z-score -1.31; inactive.
After knock-down of MAP7D2 (GeneID 256714), the record shows TNF reporter robust z-score -0.88; inactive.
Knock-down of MAP7D2 (GeneID 256714) gave: TNF reporter robust z-score -1.85; active.
After knock-down of MAP7D2 (GeneID 256714), the record shows TNF reporter robust z-score -1.02; inactive.
After knock-down of SLC16A9 (GeneID 220963), the record shows TNF reporter robust z-score -0.66; inactive.
For SLC16A9 (GeneID 220963), the entry reads TNF reporter robust z-score 0.89; inactive.
After knock-down of SLC16A9 (GeneID 220963), the screen gave TNF reporter robust z-score 0.78; inactive.
Silencing of SLC16A9 (GeneID 220963) gave: TNF reporter robust z-score 0.37; inactive.
For AHR (GeneID 196), the values are TNF reporter robust z-score 0.32; inactive.
AHR (GeneID 196) showed TNF reporter robust z-score -0.36; inactive.
For AHR (GeneID 196), the values are TNF reporter robust z-score -0.87; inactive.
AHR (GeneID 196) gave TNF reporter robust z-score -0.21; inactive.
RFPL4B (GeneID 442247) showed TNF reporter robust z-score 0.73; inactive.
Silencing of RFPL4B (GeneID 442247) gave: TNF reporter robust z-score -1.06; inactive.
Depletion of RFPL4B (GeneID 442247) resulted in: TNF reporter robust z-score -0.09; inactive.
RFPL4B (GeneID 442247) gave TNF reporter robust z-score -0.51; inactive.
ARHGEF7 (GeneID 8874) gave TNF reporter robust z-score -0.21; inactive.
ARHGEF7 (GeneID 8874) scored TNF reporter robust z-score 0.11; inactive.
With knock-down of ARHGEF7 (GeneID 8874), the screen gave TNF reporter robust z-score -0.44; inactive.
Against ARHGEF7 (GeneID 8874) the deposit lists TNF reporter robust z-score -0.14; inactive.
Silencing of C6orf89 (GeneID 221477) resulted in: TNF reporter robust z-score 1.16; inactive.
C6orf89 (GeneID 221477) gave TNF reporter robust z-score 0.67; inactive.
After knock-down of C6orf89 (GeneID 221477), the screen gave TNF reporter robust z-score -0.57; inactive.
Against C6orf89 (GeneID 221477), the values are TNF reporter robust z-score -0.61; inactive.
SPESP1 (GeneID 246777) gave TNF reporter robust z-score 4.27; active.
After knock-down of SPESP1 (GeneID 246777) the results were TNF reporter robust z-score 3.15; active.
Knock-down of SPESP1 (GeneID 246777) resulted in: TNF reporter robust z-score 0.23; inactive.
After knock-down of SPESP1 (GeneID 246777), the record shows TNF reporter robust z-score -0.17; inactive.

Reprinted from above for reference:
C6orf89 (GeneID 221477) → TNF reporter robust z-score: -0.57; activity call: inactive
C6orf89 (GeneID 221477) → TNF reporter robust z-score: -0.61; activity call: inactive
SPESP1 (GeneID 246777) → TNF reporter robust z-score: 4.27; activity call: active
SPESP1 (GeneID 246777) → TNF reporter robust z-score: 3.15; activity call: active
